Counter-ions that a name gives are not always drawn.
Assay: Jet milling of RPL554 salts (Sturtevant jet-mill, SEM)
Settings: grinding pressure 60 PSI, venture pressure 80 PSI

Compound: COc1cc2c(cc1OC)-c1c/c(=N\c3c(C)cc(C)cc3C)n(CCNC(N)=O)c(=O)n1CC2 [Ethanesulfonate, RPL554 ethanesulfonate]
- Ease of Milling (listed as ethanesulfonate salt): Easy

Compound: COc1cc2c(cc1OC)-c1c/c(=N\c3c(C)cc(C)cc3C)n(CCNC(N)=O)c(=O)n1CC2 [Hydrochloride, RPL554 hydrochloride]
- Ease of Milling (listed as hydrochloride salt, hydrochloride): Easy

Compound: COc1cc2c(cc1OC)-c1c/c(=N\c3c(C)cc(C)cc3C)n(CCNC(N)=O)c(=O)n1CC2 [Sulfate, RPL554 sulfate]
- Ease of Milling (listed as sulfate salt): Hard

Compound: COc1cc2c(cc1OC)-c1c/c(=N\c3c(C)cc(C)cc3C)n(CCNC(N)=O)c(=O)n1CC2 [p-Toluenesulfonate, RPL554 p-toluenesulfonate]
- Ease of Milling (listed as p-toluenesulfonate salt): Intermediate

Compound: COc1cc2c(cc1OC)-c1c/c(=N\c3c(C)cc(C)cc3C)n(CCNC(N)=O)c(=O)n1CC2 [Methanesulfonate, RPL554 methanesulfonate]
- Ease of Milling (listed as mesylate salt): Intermediate

Compound: COc1cc2c(cc1OC)-c1c/c(=N\c3c(C)cc(C)cc3C)n(CCNC(N)=O)c(=O)n1CC2 [Hydrobromide, RPL554 hydrobromide]
- Ease of Milling (listed as hydrobromide salt, hydrobromide): Easy

Compound: COc1cc2c(cc1OC)-c1c/c(=N\c3c(C)cc(C)cc3C)n(CCNC(N)=O)c(=O)n1CC2 [Benzenesulfonate, RPL554 benzenesulfonate]
- Ease of Milling (listed as benzenesulfonate salt): Intermediate

Compound: COc1cc2c(cc1OC)-c1c/c(=N\c3c(C)cc(C)cc3C)n(CCNC(N)=O)c(=O)n1CC2 [Ethane-1,2-disulfonate, RPL554 ethane-1,2-disulfonate]
- Ease of Milling (listed as ethane-1,2-disulfonate hemi-salt): Intermediate
